These are yes or no findings as the source states them, for the method shown. Binding seen in cells or lysates may run through a third protein. Some binding calls cover weakened binding; strength is not graded here. Values belong to the substance of their own block, whether it stands above or below them.
Tests used:
[1] = molecular target: Flag-tagged SMAD4 (pRK-DPC4-Flag), expressed in Huh7 cells (UniProt Q13485); assay: co-IP; Huh7 cells transfected with one tagged partner, the other endogenous; RIPA lysate; IP by the tag
[2] = molecular target: endogenous MyD88 of HepG2 cells (human (endogenous in HepG2)) (UniProt Q99836); assay: co-IP; both proteins endogenous; HepG2 cells (Supplementary Figure S1H)
[3] = molecular target: endogenous MyD88 of Huh7 cells (human (endogenous in Huh7)) (UniProt Q99836); assay: co-IP; both proteins endogenous; Huh7 cells treated with BMP6 for 24 h; methods list an anti-MyD88 antibody for IP

Amino acid sequences for entries named in this document (tags omitted).
UniProt Q13485: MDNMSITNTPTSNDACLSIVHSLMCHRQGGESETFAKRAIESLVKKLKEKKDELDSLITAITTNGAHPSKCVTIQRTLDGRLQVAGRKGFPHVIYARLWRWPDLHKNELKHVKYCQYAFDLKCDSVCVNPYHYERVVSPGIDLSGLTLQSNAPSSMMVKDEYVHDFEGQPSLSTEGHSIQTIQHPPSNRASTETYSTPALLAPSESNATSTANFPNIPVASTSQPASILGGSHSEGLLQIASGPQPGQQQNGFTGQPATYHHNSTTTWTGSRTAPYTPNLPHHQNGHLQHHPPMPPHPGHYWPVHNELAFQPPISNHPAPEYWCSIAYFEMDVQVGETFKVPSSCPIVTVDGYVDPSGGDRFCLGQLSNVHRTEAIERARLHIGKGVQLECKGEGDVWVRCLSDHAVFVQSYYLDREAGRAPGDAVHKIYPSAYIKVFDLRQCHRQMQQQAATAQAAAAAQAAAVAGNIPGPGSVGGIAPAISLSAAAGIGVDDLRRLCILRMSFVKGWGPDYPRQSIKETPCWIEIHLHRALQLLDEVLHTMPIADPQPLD
UniProt Q99836: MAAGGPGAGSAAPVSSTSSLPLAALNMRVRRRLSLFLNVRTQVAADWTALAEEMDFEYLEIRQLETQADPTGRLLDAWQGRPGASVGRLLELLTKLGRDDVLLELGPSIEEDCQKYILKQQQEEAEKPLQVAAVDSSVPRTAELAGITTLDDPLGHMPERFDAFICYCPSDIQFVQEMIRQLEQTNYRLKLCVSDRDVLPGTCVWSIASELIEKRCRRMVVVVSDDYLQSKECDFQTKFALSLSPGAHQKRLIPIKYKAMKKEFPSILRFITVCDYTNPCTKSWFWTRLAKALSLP

binding [1]: binds
Substance: endogenous MyD88 of Huh7 cells (from UniProt Q99836 1-296)

binding [2]: binds
Substance: endogenous SMAD4 of HepG2 cells (from UniProt Q13485 1-552)

binding [3]: binds
Substance: endogenous SMAD4 of Huh7 cells (from UniProt Q13485 1-552)
